According to PMC4754349, “Tripartite assembly of RND multidrug efflux pumps” (Nature Communications, 2016):
These are yes or no findings as the source states them, for the method shown.

Target: T1, OprM reconstituted into nanodiscs (OprM–ND) (Pseudomonas aeruginosa) (UniProt Q51487)
T1 sequence: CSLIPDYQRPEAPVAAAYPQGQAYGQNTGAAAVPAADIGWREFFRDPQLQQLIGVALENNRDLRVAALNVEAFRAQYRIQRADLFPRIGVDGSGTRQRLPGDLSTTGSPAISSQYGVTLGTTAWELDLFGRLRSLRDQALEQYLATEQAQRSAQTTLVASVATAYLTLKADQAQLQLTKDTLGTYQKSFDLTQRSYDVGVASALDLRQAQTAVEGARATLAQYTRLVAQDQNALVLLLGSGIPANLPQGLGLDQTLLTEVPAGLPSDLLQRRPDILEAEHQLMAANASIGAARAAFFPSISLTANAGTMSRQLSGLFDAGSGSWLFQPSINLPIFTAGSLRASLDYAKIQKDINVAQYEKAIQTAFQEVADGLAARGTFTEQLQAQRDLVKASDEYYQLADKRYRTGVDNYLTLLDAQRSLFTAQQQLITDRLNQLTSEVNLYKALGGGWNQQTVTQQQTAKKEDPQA
Experiment: native gel or EMSA; native PAGE, 4–15% gradient gel, Tris-Glycine running buffer, silver stained; nanodisc-reconstituted MexB and OprM mixed 1:1, with or without lipidated MexA (1:1:10 molar ratio); both purified

B1: lipidated MexA (natural protein)
chain: CGKSEAPPPAQTPEVGIVTLEAQTVTLNTELPGRTNAFRIAEVRPQVNGIILKRLFKEGSDVKAGQQLYQIDPATYEADYQSAQANLASTQEQAQRYKLLVADQAVSKQQYADANAAYLQSKAAVEQARINLRYTKVLSPISGRIGRSAVTEGALVTNGQANAMATVQQLDPIYVDVTQPSTALLRLRRELASGQLERAGDNAAKVSLKLEDGSQYPLEGRLEFSEVSVDEGTGSVTIRAVFPNPNNELLPGMFVHAQLQEGVKQKAILAPQQGVTRDLKGQATALVVNAQNKVELRVIKADRVIGDKWLVTEGLNAGDKIITEGLQFVQPGVEVKTVPAKNVASAQKADAAPAKTDSKG
modifications: lipidated (palmitoylation of an N-terminal cysteinyl residue)
notes: MexA, periplasmic membrane fusion protein of Pseudomonas aeruginosa, native lipidated form, 39 kDa monomer; also called native lipid-modified MFP; source: E. coli C43ΔacrB, purified (HisTrap HP, gel filtration Superose 6), in 0.03% DDM
  binding: no binding (condition: without MexB–ND)
